# According to patent US6372212B1, “Chitinase materials and methods” (ICOS Corporation, priority 1996, dated 2002):
# Read-outs that look alike come from different tables or passages of the source.
# Design: species or system Female Balb/c mice
# Conditions: mouse, in vivo, iv
# Protocol: The pharmacokinetics of recombinant human chitinase in mice were determined as follows. Female Balb/c mice, 6-8 weeks old, were injected intravenously in the tail vein with 0.5 mg/kg, 5.0 mg/kg and 50 mg/kg recombinant human chitinase. For each dose, mice were terminally bled at 0.01, 0.25, 1, 8 and 24 hours after injection (2 animals were used per time point per dosage). Serum samples were then assayed for chitinase activity and concentration.
molecule,measurement,setting,value
"A: rH-Chitinase: Recombinant human chitinase (full length, pRc/CMV-MO-13B, SEQ ID NO: 4) produced in COS cells according to Example 5A (protein) MVRSVAWAGFMVLLMIPWGSAAKLVCYFTNWAQYRQGEARFLPKDLDPSLCTHLIYAFAGMTNHQLSTTEWNDETLYQEFNGLKKMNPKLKTLLAIGGWNFSTQKFTDMVATANNRQTFVNSAIRFLRKYSFDGLDLDWEYPGSQGSPAVDKERFTTLVQDLANAFQQEAQTSGKERLLLSAAVPAGQTYVDAGYEVDKIAQNLDFVNLMAYDFHGSWEKVTGHNSPLYKRQEESGAAASLNVDAAVQQWLQKGTPASKLILGMPTYGRSFTLASSSDTRVGAPATGSGTPGPFTKEGGMLAYYEVCSWKGATKQRIQDQKVPYIFRDNQWVGFDDVESFKTKVSYLKQKGLGGAMVWALDLDDFAGFSCNQGRYPLIQTLRQELSLPYLPSGTPELEVPKPGQPSEPEHGPSPGQDTFCQGKADGLYPNPRERSSFYSCAAGRLFQQSCPTGLVFSNSCKCCTWN",AUC (area under curve to time infinity),0.5 mg/kg,31.24 µg/mL/h
same,Cmax (peak serum concentration),0.5 mg/kg,22.30 µg
same,Vss (steady state volume of distribution),0.5 mg/kg,0.01203 L/kg
same,cL (clearance),0.5 mg/kg,0.2668 mL/min/kg
same,half-life,0.5 mg/kg,0.74 h
same,AUC (area under curve to time infinity),5 mg/kg,278.50 µg/mL/h
same,Cmax (peak serum concentration),5 mg/kg,162.84 µg
same,Vss (steady state volume of distribution),5 mg/kg,0.01361 L/kg
same,cL (clearance),5 mg/kg,0.2992 mL/min/kg
same,half-life,5 mg/kg,1.38 h
same,AUC (area under curve to time infinity),50 mg/kg,2505.83 µg/mL/h
same,Cmax (peak serum concentration),50 mg/kg,1179.19 µg
same,Vss (steady state volume of distribution),50 mg/kg,0.05292 L/kg
same,cL (clearance),50 mg/kg,0.3325 mL/min/kg
same,half-life,50 mg/kg,2.33 h
